PubChem BioAssay AID652243 – Drosophila RNAi Screening Center – 2013

- Purpose: 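Fly regulators of androgen-dependent reporter output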 (primary screen)
- System: Drosophila S2R+ cells
- Knock-down reagent: long dsRNA against Drosophila genes
- Duration: 72 h (48 h, then 24 h hormone)
- Challenge: synthetic androgen R1881 at 10 nM for 24 h
- Measurement: 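Firefly light from an androgen-responsive reporter and Renilla control light per well, raw and unnormalised, for each of two replicates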
- Scale: firefly reporter light: higher = more light from androgen-responsive reporter; Renilla control light: higher = more constitutive control signal (cell number, transfection)
- Hit rule: 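Hit when the log firefly-to-Renilla ratio dropped or increased by a fixed fold versus the mean of GFP or LacZ controls across duplicate plates; lowering cut given as 1.5 and as 3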
- Calls: active = hit: reporter lowered or raised; inactive = no hit
In all, the deposit lists about 24,000 reagents; this is an unselected part of those that have a named target and a result. Of all reagents, 246 (1%) were called active. 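Plates not normalised; calls are printed but the firefly/Renilla ratio behind them is not deposited; fold cut for lowering reported inconsistently.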 The raw values are shown without normalisation. Not stated in the record: the amount of reagent.

gene	amplicon	firefly reporter light, replicate 1	firefly reporter light, replicate 2	Renilla control light, replicate 1	Renilla control light, replicate 2	Outcome
ZAP3	DRSC17852	1.07e5	75915	7.59e5	6.53e5	inactive
ZAP3	DRSC17853	2.24e5	3.95e5	3.58e6	4.19e6	inactive
ZAP3	DRSC18249	2.61e5	3.31e5	2.27e6	2.70e6	inactive
CG8520	DRSC07206	9.51e5	5.83e5	1.64e6	1.39e6	inactive
Tsp42Ef (Tetraspanin 42Ef)	DRSC06191	4.96e5	4.10e5	3.45e6	2.29e6	inactive
CG3651	DRSC03730	1.88e5	2.32e5	1.39e6	1.35e6	inactive
CG17019	DRSC06642	9.13e5	9.37e5	9.23e5	1.36e6	inactive
CG33552	DRSC37909	4.06e5	2.56e5	1.56e6	1.30e6	inactive
JMJD5 (Jumonji domain containing 5)	DRSC08372	83415	1.45e5	1.21e6	1.95e6	inactive
JMJD5 (Jumonji domain containing 5)	DRSC25820	5.04e5	5.97e5	1.15e6	8.70e5	inactive
CG10232	DRSC14218	1.73e5	1.90e5	1.96e6	1.60e6	inactive
CG6834	DRSC16125	1.55e5	2.29e5	1.69e6	2.01e6	inactive
CG6834	DRSC29321	9.26e5	7.51e5	1.97e6	1.97e6	inactive
Cad96Cb (Cadherin 96Cb)	DRSC14243	1.32e5	1.48e5	1.78e6	1.55e6	inactive
Cad96Cb (Cadherin 96Cb)	DRSC14665	1.69e5	2.43e5	2.54e6	2.17e6	inactive
Cad96Cb (Cadherin 96Cb)	DRSC28720	4.48e5	4.60e5	1.28e6	1.32e6	inactive
CG9951	DRSC11105	29888	27571	4.71e5	2.86e5	inactive
hpRNA:CR32207 (hairpin RNA:CR32207)	DRSC09616	1.44e5	1.43e5	3.47e5	3.30e5	inactive
az2	DRSC07580	7.66e5	7.71e5	2.19e6	1.96e6	inactive
RpL30 (Ribosomal protein L30)	DRSC02087	1.69e5	1.80e5	1.08e6	1.61e6	inactive
Or67c (Odorant receptor 67c)	DRSC11242	2.10e5	1.56e5	2.43e6	1.68e6	inactive
Kif19A (Kinesin family member 19A)	DRSC16576	2.36e5	2.24e5	2.07e6	2.79e6	inactive
Kif19A (Kinesin family member 19A)	DRSC23867	4.30e5	3.37e5	4.50e5	4.94e5	inactive
Spn43Ab (Serpin 43Ab)	DRSC06781	1.84e5	1.15e5	1.61e6	8.78e5	inactive
Spn43Ab (Serpin 43Ab)	DRSC28317	3.49e5	5.27e5	1.25e6	2.23e6	inactive
CG4101	DRSC10400	2.57e5	3.12e5	2.50e6	2.44e6	inactive
mtgo (miles to go)	DRSC02769	1.06e6	4.98e5	2.03e6	1.27e6	inactive
mtgo (miles to go)	DRSC21392	6.80e5	6.13e5	1.99e6	1.81e6	inactive
mtgo (miles to go)	DRSC21743	5.01e5	3.93e5	1.84e6	2.08e6	inactive
mtgo (miles to go)	DRSC27702	2.21e5	2.39e5	3.56e5	7.58e5	inactive
CG14968	DRSC08427	58454	1.02e5	9.47e5	1.49e6	inactive
CG14968	DRSC28793	3.44e5	2.59e5	1.63e6	1.41e6	inactive
Tailor	DRSC12526	46037	37533	1.39e6	8.87e5	inactive
Pi3K68D (Phosphatidylinositol 3-kinase 68D)	DRSC11253	1.24e6	1.21e6	2.04e6	1.52e6	inactive
Pi3K68D (Phosphatidylinositol 3-kinase 68D)	DRSC28860	3.33e5	4.38e5	1.34e6	1.01e6	inactive
Pi3K68D (Phosphatidylinositol 3-kinase 68D)	DRSC37024					inactive
Sec20 (Secretory 20)	DRSC12295	58359	31865	1.87e6	1.12e6	inactive
Sec20 (Secretory 20)	DRSC29886	5.82e5	5.14e5	9.84e5	1.02e6	inactive
gcl (germ cell-less)	DRSC07623	8.57e5	7.02e5	1.14e6	1.12e6	inactive
gcl (germ cell-less)	DRSC27995	8.21e5	6.84e5	1.58e6	1.21e6	inactive

Ordered by “Renilla control light, replicate 1” (ascending): 4 of the entries above
gene	amplicon	firefly reporter light, replicate 1	firefly reporter light, replicate 2	Renilla control light, replicate 1	Renilla control light, replicate 2	Outcome
Cad96Cb (Cadherin 96Cb)	DRSC28720	4.48e5	4.60e5	1.28e6	1.32e6	inactive
Cad96Cb (Cadherin 96Cb)	DRSC14243	1.32e5	1.48e5	1.78e6	1.55e6	inactive
CG6834	DRSC29321	9.26e5	7.51e5	1.97e6	1.97e6	inactive
Cad96Cb (Cadherin 96Cb)	DRSC14665	1.69e5	2.43e5	2.54e6	2.17e6	inactive
